One compound from article PMC10746543, “Design principles for cyclin K molecular glue degraders” (Nature Chemical Biology, 2023) can be followed below.

Read-outs that look alike come from different tables or passages of the source. The match of structure and compound is tentative.

In assay [1] the test system is cyclin K–eGFP degradation reporter. Nature of the assay: Cyclin K reporter stability analysis (dual-color cyclin K–eGFP reporter). In kind it is cell-based, human. As to conditions: source data sheet correlations.
Assay [2] relates to HEK293T cells. Nature of the assay: Drug sensitivity assay (CellTiter-Glo viability) with or without MLN4924 pretreatment. In kind it is cell-based, human. For orientation: Cellular ATP, detected with luciferase, serves as a proxy for viable cell number.

The term DC50 denotes the concentration giving 50% degradation. Higher therefore signals a less potent degrader. A word on the EC50: it is the midpoint of the concentration-response curve. For the compound `CC[C@H](CO)Nc1nc(NCc2ccc(-c3ccccn3)cc2)c2ncn(C(C)C)c2n1`, the DC50 in assay [1] was 55 nM. Moreover, the EC50 in assay [2] (read-out: Viability EC50, no MLN4924, Supplementary Fig. 5, 72h) came to 456 nM; in assay [2] (read-out: Viability EC50, with MLN4924, Supplementary Fig. 5, 72h, pre-treatment with 100 nM MLN4924), 2480 nM.
